{
  "source": "patent EP4473972A1",
  "about": "“COMBINATIONS COMPRISING AN ATR INHIBITOR WITH SYNERGISTIC EFFECT AGAINST GLIOMAS” (Eberhard-Karls-Universität Tübingen, priority 2023, dated 2024)",
  "key": {"[1]": {"system": "LN229 cells", "experiment": "4x4 synergy map assay (ZIP synergy score)", "format": "cell-based, human", "conditions": "combined with AZD6738 (ATRi)", "description": "(§1) The inventors seeded 5,000 or 10,000 cells, respectively, on day one, treated the next day in serum-free medium and incubated for up to 72 h. Subsequently, they measured cell viability using CellTiterBlue reagent (Promega, Madison, WI, US) according to manufacturer's instructions with a GloMax (Promega, Madison, Wl, US). The inventors normalized measurements to untreated cells.\n(§2) The inventors leveraged an acute cytotoxicity assay workflow to evaluate potential interaction partners for AZD6738 which were derived from transcriptomic, proteomic and genome-wide CRISPR/Cas9 genetic dependency analyses. […] The inventors used the original Bliss Independence Criterion to evaluate synergism potential. For this, a predicted value for additivity, derived from the product of the two monotherapy settings, was compared to the actual measurement of the combined treatment of the two drugs. […] BMC Systems Biology 4: 50. Subsequently, the inventors subjected LN229, LNZ308, GS-2 and GS-9 cells to 4x4 synergy map assays again in an acute cytotoxicity assay workflow. […] New York, NY: Springer New York."}, "[2]": {"system": "LNZ308", "experiment": "4x4 synergy map assay (ZIP synergy score)", "format": "cell-based, human", "conditions": "combined with AZD6738 (ATRi)", "description": "as §1, §2"}, "[3]": {"system": "GS-2 cells", "experiment": "4x4 synergy map assay (ZIP synergy score)", "format": "cell-based", "conditions": "combined with AZD6738 (ATRi)", "description": "as §1, §2"}, "[4]": {"system": "GS-9", "experiment": "4x4 synergy map assay (ZIP synergy score)", "format": "cell-based", "conditions": "combined with AZD6738 (ATRi)", "description": "as §1, §2"}, "[5]": {"system": "LN229 and LNZ308 cells", "experiment": "1x1 (IC50xIC50) pre-selection screen, acute cytotoxicity assay, Bliss Independence Criterion", "format": "cell-based, human", "conditions": "combined with AZD6738, 1x1 (IC50xIC50), 72 h, serum free medium", "description": "as §1\nThe inventors leveraged an acute cytotoxicity assay workflow to evaluate potential interaction partners for AZD6738 which were derived from transcriptomic, proteomic and genome-wide CRISPR/Cas9 genetic dependency analyses. In a 1×1/IC50×IC50 set-up, they treated LN229 and LNZ308 cells in serum free medium for 72 h. The inventors used the original Bliss Independence Criterion to evaluate synergism potential. For this, a predicted value for additivity, derived from the product of the two monotherapy settings, was compared to the actual measurement of the combined treatment of the two drugs. […] BMC Systems Biology 4: 50. […] The inventors used the R package synergyfinder with zero interaction potential (ZIP) synergy scores calculated from 4x4 concentration matrices for each tested combination and the average across the plate; see He et al. (2018); Methods for High-throughput Drug Combination Screening and Synergy Scoring. […]"}},
  "note": "At least one structure is not confirmed: it was looked up by name or label, or the drawing left a doubt.",
  "data": [
    {"smiles": "Cn1nnc2c(C(N)=O)ncn2c1=O", "note": "[temozolomide]", "values": [
      {"measurement": "ZIP synergy score (interaction with ATRi)", "setting": "[1]", "value": "synergistic interaction"},
      {"measurement": "ZIP synergy score (interaction with ATRi)", "setting": "[2]", "value": "do not"},
      {"measurement": "ZIP synergy score (interaction with ATRi)", "setting": "[3]", "value": "synergistic interaction"},
      {"measurement": "ZIP synergy score (interaction with ATRi)", "setting": "[4]", "value": "do not"},
      {"measurement": "Bliss synergy scores", "setting": "[5]", "value": "top scoring hits"}
    ]}
  ]
}
